{"source": "patent US20070065366A1", "about": "“Pharmaceutical formulations comprising a long-acting beta2-agonist for administration by nebulisation” (Chiesi Farmaceutici S.p.A., priority 2005, published 2007)", "origin": "cited, not measured here", "settings": "buffer concentration increased from 5 mM to 20 mM, cited from earlier work", "note": "Where two headings read alike, the source gives them in different places.", "data": [{"smiles": "COc1ccc(CC(C)NCC(O)c2ccc(O)c(NC=O)c2)cc1", "note": "(centres unmarked) [formoterol]", "values": [{"measurement": "effect of buffer concentration on the rate constant of decomposition", "setting": "low and approximately neutral conditions", "result": "increased its rate constant of decomposition significantly"}, {"measurement": "effect of buffer concentration on the rate constant of decomposition", "setting": "pH region of about 4.5 to about 5.5", "result": "no noticeable differences in rate constant"}]}]}
